In all, about 330,000 compounds went through this assay and about 7,700 (2.3%) were called active. The inconclusive results got no clear call from the source; some entries with a clear call stand among them for comparison. Calls follow the shape of the dose curve; as a rule, active = well fitted inhibition curve with a large enough effect; inconclusive = small, poorly fitted or top-dose-only effect, or effect the other way; inactive = flat fitted curve, though single readings scatter. Potencies beside an inconclusive call are fits to weak or partial responses and may not hold up.
Assay: qHTS screen for small molecules that inhibit ELG1-dependent DNA repair in human embryonic kidney (HEK293T) cells expressing luciferase-tagged ELG1; also: nearly all actives have a fitted effect of over 55% in size
Conditions: HEK293T ELG1-luciferase reporter, luminescence, 16 h, DNA damage induced by 5-fluorouridine; activity change, negative = inhibition: at 46.1 µM (top of the series)
How it was run: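 In this reporter screen, reduction of luminescence relative to DMSO vehicle indicated activity. Compounds and 5-fluorouridine were added together to 2,000 cells per well, incubated for 16 hr at 37 °C, then developed with ONE-Glo.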
In the case of `CC(=O)Nc1ccc(NC(=O)C(C)OC(=O)COc2ccc(Nc3ccccc3)cc2)cc1` (stereo not drawn), the “activity change, negative = inhibition” value is reported as inactive: 6.17%.
For `CC(NC(=O)CSc1nc2c(cc1C#N)CN(C)CC2)c1ccccc1` (stereo not drawn), the Potency was inconclusive: 1.46 µM [inhibitor, partial curve, poor fit].
With `COc1cc(CC(=O)Nc2nc(-c3ccccc3)c(C(C)=O)s2)cc(OC)c1OC` the Potency was active: 8.2 µM.
With `CSc1nc(NCc2ccco2)c2ccccc2n1` the “activity change, negative = inhibition” value was inactive: -22.4%.
In the case of `Cc1ccc2cc(C#N)c(SCC(=O)NNC(=O)Cc3ccccc3)nc2c1`, the Potency is reported as inconclusive: 29.1 µM [activator, single point].
With `COC(=O)c1ccc(C)c(NC(=O)c2ccc(CN3CCc4ccccc4C3)cc2)c1` the Potency was inconclusive: 5.8 µM [inhibitor, partial curve, poor fit].
In the case of `COC(=O)c1[nH]c2cccc(OC)c2c1NC(=O)CN1CCN(c2cccc(OC)c2)C(C)C1` (stereo not drawn), the Potency is reported as active: 13 µM.
With `CCCCC(=O)Nc1ccc2c(c1)nc1n2CCOC1` the Potency was inconclusive: 20.6 µM [activator, partial curve].
With `COc1ccccc1C/C(N)=N/OC(=O)c1ccc(C)c([N+](=O)[O-])c1` the “activity change, negative = inhibition” value was inactive: 11.4%.
In the case of `COc1ccc(S(=O)(=O)N2CCOC2CNC(=O)C(=O)NCCc2ccc(OC)c(OC)c2)cc1` (stereo not drawn), the Potency is reported as inconclusive: 29.1 µM [inhibitor, single point].
For `Cc1cc2oc(=O)cc(CN3CCCCC3)c2cc1O`, the Potency was inconclusive: 23.1 µM [activator, partial curve, poor fit].
With `COc1ccccc1CNC(=O)CCC(=O)Nc1nnc(C(C)C)s1` the Potency was inconclusive: 14.6 µM [activator, single point].
In the case of `COc1ccc(C2CC(=O)C=C(NCCC(C)C)C2)cc1` (stereo not drawn), the “activity change, negative = inhibition” value is reported as inactive: -2.29%.
In the case of `CCOc1ccc(NC(=O)CSc2cn[nH]n2)cc1`, the Potency is reported as inconclusive: 29.1 µM [activator, single point].
For `O=C(CCc1nc(-c2ccccc2F)no1)NCCN1CCN(Cc2ccccc2)CC1`, the Potency was inconclusive: 7.94 µM [inhibitor, partial curve].
With `COc1ccc(Cn2nnc(C(=O)Nc3ccc(F)cc3)c2N)cc1` the Potency was inconclusive: 32.6 µM [activator, single point].
In the case of `O=C(c1ccc(Br)s1)N1CCN(Cc2ccc3c(c2)OCO3)CC1`, the Potency is reported as inconclusive: 6.51 µM [inhibitor, partial curve, poor fit].
In the case of `Cc1csc(N/N=C/c2c(F)cccc2Cl)n1`, the Potency is reported as inconclusive: 18.3 µM [activator, single point].
For `COc1ccc(CCn2cnc3c([nH]c4ccccc43)c2=O)cc1`, the “activity change, negative = inhibition” value was inactive: -2.14%.
With `COc1ccc(C2(CNC(=O)c3ccc(OC)c([N+](=O)[O-])c3)CCOCC2)cc1OC` the Potency was inconclusive: 8.2 µM [inhibitor, partial curve].
In the case of `CC12CCC(C(=O)NCCc3ccccc3)(OC1=O)C2(C)C` (stereo not drawn), the “activity change, negative = inhibition” value is reported as inactive: 7.71%.
In the case of `CS(=O)(=O)c1cccc(-c2nnc(NC(=O)c3ccc4ncsc4c3)o2)c1`, the “activity change, negative = inhibition” value is reported as inactive: 13.8%.
For `COc1cccc(NC(=O)COC(=O)c2ccc(C)c(S(=O)(=O)N3CCCCC3)c2)c1`, the Potency was inconclusive: 25.9 µM [inhibitor, partial curve, poor fit].
With `Cc1cc(NCc2ccccn2)n2c(nc3ccccc32)c1C#N` the “activity change, negative = inhibition” value was inactive: -5.03%.
With `COc1cc(N)c(Cl)cc1C(=O)OCC(=O)N1CCCCCC1` the Potency was inconclusive: 29.1 µM [activator, single point].
For `COC(=O)CSc1nc2cc(C)cc(C)c2cc1C#N`, the Potency was inconclusive: 2.06 µM [activator, full curve, poor fit].
In the case of `COc1ccccc1N1CCN(CC(O)COc2cccc3ccccc23)CC1` (stereo not drawn), the Potency is reported as inconclusive: 25.9 µM [inhibitor, single point].
With `CCOC(=O)c1c(C)[nH]c(C(=O)OCc2c(C)noc2C)c1C` the Potency was inconclusive: 18.4 µM [inhibitor, single point].
In the case of `CCCCC(=O)Nc1nnc(-c2ccc(OC)cc2)s1`, the Potency is reported as inconclusive: 9.2 µM [activator, partial curve].
For `CC(C)COc1ccc(-c2nnn(CC(=O)N3CCCC3)n2)cc1`, the Potency was inconclusive: 11.6 µM [activator, partial curve].
With `Cc1ccccc1CN1C(=O)c2ccccc2Sc2ccc(C(=O)NCCCN3CCOCC3)cc21` the Potency was inconclusive: 29.1 µM [inhibitor, single point].
In the case of `OC(COc1ccc(F)cc1Cl)CN1CCC(Cc2ccccc2)CC1` (stereo not drawn), the Potency is reported as inconclusive: 20.6 µM [inhibitor, single point].
For `CC(C)(CO)CNC(=O)CCc1nnc(CCCc2ccccc2)o1`, the Potency was inconclusive: 16.4 µM [activator, single point].
With `COc1ccc(C(=O)N=c2c(C#N)cc3c(=O)n4cccc(C)c4nc3n2Cc2ccco2)cc1` the “activity change, negative = inhibition” value was inactive: -2.77%.
With `COc1ccc(-n2c(-c3ccc(Br)cc3)c[n+]3c2CCCCC3)cc1` the Potency was active: 5.17 µM.
With `Cc1scc(C(=O)N/N=C/c2ccc(OC(C)C)cc2)c1C` the Potency was inconclusive: 5.8 µM [activator, partial curve, poor fit].
With `Cn1c(SCC(=O)Nc2ccccc2)nc2ccccc2c1=O` the Potency was inconclusive: 4.11 µM [inhibitor, partial curve, poor fit].
For `CC(C)c1nnc(NC(=O)CCC(=O)NC2CCCc3ccccc32)s1` (stereo not drawn), the Potency was inconclusive: 20.6 µM [activator, single point].
For `CN(C)S(=O)(=O)c1ccc(N2CCCC2)c(C(=O)N2CCN(c3ccc([N+](=O)[O-])cc3)CC2)c1`, the Potency was inconclusive: 16.4 µM [inhibitor, partial curve, poor fit].
In the case of `CN(Cc1cnn(C)c1)Cc1nc(COc2ccccc2)no1`, the Potency is reported as inconclusive: 18.3 µM [activator, single point].
With `O=C(Nc1nc2c(Cl)ccc(Cl)c2s1)C1CC1` the Potency was inconclusive: 7.3 µM [inhibitor, partial curve, poor fit].
For `Cc1nc(Nc2ccccc2Br)c2nnn(Cc3ccccc3)c2n1`, the “activity change, negative = inhibition” value was inactive: -0.881%.
In the case of `Cc1noc(C)c1CC(=O)N1CCCC(C(=O)c2ccc(C(C)(C)C)cc2)C1` (stereo not drawn), the Potency is reported as inconclusive: 16.4 µM [inhibitor, partial curve, poor fit].

— PubChem BioAssay AID504467 (National Center for Advancing Translational Sciences (NCATS), 2011)
% is scaled to controls: 0 for no effect and ±100 for the full control effect; potency is read from the fitted curve at half-maximal effect.
